# The whole screen tested about 53,000 sequences, of which about 3,700 (7%) were called active.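 How the source made its calls: active means gene knockdowns whose robust z-score for IL-1 alpha signal is at least 2 or at most -2, so actives lie on both sides; inactive means the rest.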 Some of the results follow.
# Test: Components of the Cytosolic LPS Sensing Pathway: Gene Identification via Genome-wide siRNA Screen;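 further: robust z of the log signal after scaling to non-targeting control siRNA wells of the plate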
# Details: RAW264.7 macrophages, IL-1a HTRF, actives lie on both sides, screened at 100 nM (by protocol), cells primed 5 h with Pam3CSK4 first
# How it was run: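 RAW264.7; siRNA 100 nM final, RNAiMAX, 48h 37 degrees C; Pam3CSK4 5 h; LipidA + TransIT-TKO 24 h; IL-1a HTRF; CellTiter-Glo viability; robust z vs negative-control median.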
row,Sequence,z-score
1,GGGCUGGUUCGAGCCAAUATT against Apoe,inactive: 1.62
2,GCCUCAUCAAUCCACUGCATT against Mtss2,inactive: -0.956
3,GGUGGCUUUGGCUGCAUCUTT against Vrk1,inactive: -0.669
4,GGCCUCUUCACUUAUGUAUTT against Inha,inactive: -0.22
5,GGUUCAUUUUAACUGUAGATT against Lilra6,inactive: -0.752
6,GCCUUCAUUAUUUUAAUGCTT against Ilf3,inactive: 0.0185
7,CCAUCAAUGUGCAGAAAUCTT against Zfp871,inactive: -0.893
8,GGGAGGCUGUUGUCAAUCCTT against Krtap5-4,inactive: 0.368
9,GGAAAAAUUUCCAGAGGUUTT against Pnpt1,inactive: 0.267
10,GGUUAGUGCUCCAUUAUUCTT against D3Ertd751e,inactive: -1.22
11,GGAAAAGAUCACCAGGAGCTT against Pin1,inactive: -0.507
12,CCCACCGCCAUGACAUUAUTT against Klk15,inactive: -0.776
13,CCUGUAGUUUGUUGAAUCUTT against 2410018L13Rik,inactive: 1.4
14,GGCAAGAAAUUCUUCAGCATT against St8sia3,inactive: -1.38
15,CGACCAUCUUUACUUUAUCTT against Cilk1,inactive: 1.61
16,GGUCUUUGAGACAGAUAUUTT against Colec12,inactive: 0.0435
17,GGAUUUUCUGAAGCAAUGCTT against Olah,inactive: -0.127
18,GGGAUUCUGUCUGCACUGUTT against Olfr1145,active: -2.51
19,GCUGGGUGUAAUGUUUCCUTT against Tbcel,inactive: 0.789
20,GGGUCUGGAAUCCAUCCGUTT against Lin28a,inactive: -1.25
21,GGAGAGUACUUCCAGUAAGTT against Glycam1,inactive: -0.329
22,GGAAGAAUUUUCGCCAACATT against Iqcb1,inactive: -0.214

row,Sequence,z-score
1,GGAGAUACAUUGGUAGGUATT against Idua,inactive: -0.469
2,GGAUCAAUCAUGCAUCCAUTT against Lipc,inactive: 1.95
3,GCUAGAAAUAGCCUUAGGUTT against Nceh1,inactive: 0.598
4,GGAUAUGUGUUCAUCCUGUTT against Lrrc18,inactive: 0.0347
5,GGUGUUGAGUGCACUACUGTT against Nckap5l,active: -2.2
6,GCCAAUAUAGGUUUUAGGUTT against Serpinb6b,inactive: 1.04
7,GGCGUACAGUAUUUCCUACTT against Il17d,inactive: 0.79
8,GGAACACAAAGGUAAGAAATT against Raf1,inactive: 0.0798
9,GGACAAAAAUGCAAGAAGATT against Klhl31,inactive: -0.473
10,CCAUCUAAAGGCAUGCAAGTT against Cmah,inactive: -0.833
11,GCACAAAUUUGAAGAUCUATT against Ptprb,inactive: 1.62
12,CCUCUGUAAGAUAAUGUUUTT against Ctsm,inactive: 0.274
13,GGGAAUCCGUCCCAAGAAGTT against Rrs1,inactive: 0.243
14,GGUUUUUGACUUGAGUCAUTT against Olfr689,inactive: -1.69
15,CGGUUUCUAAAAGAAUUGGTT against Syt16,inactive: -0.181
16,GGACGAUGUCUUAUAGAAGTT against Pih1d2,inactive: 1.16
17,GCAUUGGAGCUAAAUCUGGTT against Tcap,inactive: 0.395
18,GGACAAUUGAAAACUGCCUTT against Gpd1,active: 2.95
19,GGAAGAUUACCAACUUUGATT against Ric3,inactive: 0.765
20,GGCAUUCAGUAAGUUGUUATT against Pced1a,inactive: 0.11
21,GGUGGUGAUUCACCUCCAATT against Tnfrsf12a,active: -2.23
22,GCAUGGGAGCAGUGUGAACTT against Tubb4b,inactive: 0.206

# Exported as tab-separated lines: entries from further up.
row	Sequence	z-score
5	GGUUCAUUUUAACUGUAGATT against Lilra6	inactive: -0.752
6	GCCUUCAUUAUUUUAAUGCTT against Ilf3	inactive: 0.0185
7	CCAUCAAUGUGCAGAAAUCTT against Zfp871	inactive: -0.893
8	GGGAGGCUGUUGUCAAUCCTT against Krtap5-4	inactive: 0.368
9	GGAAAAAUUUCCAGAGGUUTT against Pnpt1	inactive: 0.267
10	GGUUAGUGCUCCAUUAUUCTT against D3Ertd751e	inactive: -1.22
11	GGAAAAGAUCACCAGGAGCTT against Pin1	inactive: -0.507
12	CCCACCGCCAUGACAUUAUTT against Klk15	inactive: -0.776
13	CCUGUAGUUUGUUGAAUCUTT against 2410018L13Rik	inactive: 1.4
14	GGCAAGAAAUUCUUCAGCATT against St8sia3	inactive: -1.38
15	CGACCAUCUUUACUUUAUCTT against Cilk1	inactive: 1.61
16	GGUCUUUGAGACAGAUAUUTT against Colec12	inactive: 0.0435
17	GGAUUUUCUGAAGCAAUGCTT against Olah	inactive: -0.127
18	GGGAUUCUGUCUGCACUGUTT against Olfr1145	active: -2.51
19	GCUGGGUGUAAUGUUUCCUTT against Tbcel	inactive: 0.789
20	GGGUCUGGAAUCCAUCCGUTT against Lin28a	inactive: -1.25
21	GGAGAGUACUUCCAGUAAGTT against Glycam1	inactive: -0.329
22	GGAAGAAUUUUCGCCAACATT against Iqcb1	inactive: -0.214
1	GGAGAUACAUUGGUAGGUATT against Idua	inactive: -0.469
2	GGAUCAAUCAUGCAUCCAUTT against Lipc	inactive: 1.95
3	GCUAGAAAUAGCCUUAGGUTT against Nceh1	inactive: 0.598
4	GGAUAUGUGUUCAUCCUGUTT against Lrrc18	inactive: 0.0347
5	GGUGUUGAGUGCACUACUGTT against Nckap5l	active: -2.2
6	GCCAAUAUAGGUUUUAGGUTT against Serpinb6b	inactive: 1.04
7	GGCGUACAGUAUUUCCUACTT against Il17d	inactive: 0.79
8	GGAACACAAAGGUAAGAAATT against Raf1	inactive: 0.0798
9	GGACAAAAAUGCAAGAAGATT against Klhl31	inactive: -0.473
10	CCAUCUAAAGGCAUGCAAGTT against Cmah	inactive: -0.833
11	GCACAAAUUUGAAGAUCUATT against Ptprb	inactive: 1.62
12	CCUCUGUAAGAUAAUGUUUTT against Ctsm	inactive: 0.274
13	GGGAAUCCGUCCCAAGAAGTT against Rrs1	inactive: 0.243
14	GGUUUUUGACUUGAGUCAUTT against Olfr689	inactive: -1.69
15	CGGUUUCUAAAAGAAUUGGTT against Syt16	inactive: -0.181

# Further results:

row,Sequence,z-score
1,GCAUCGAAUGUUUGAACCCTT against Gstm6,inactive: 0.782
2,GGAAAUGAUCUCUUUUGGATT against Bbs2,inactive: -0.734
3,CCCAAAAAGUUUUGCUAACTT against Ing2,inactive: 0.753
4,CCUACAUUCACCAAAAGGUTT against Usp9y,inactive: -0.211
5,GGGAAUGCACUACAACUACTT against Chpf,inactive: 1.16
6,CCAAGAAUGCCCAGCAAGUTT against E4f1,active: 2.39
7,GGUGUCUCUGAUGAAUCACTT against Syt15,inactive: 1.21
8,GCGAGUGUAUGCUUGAGAATT against Hspa12b,inactive: 1.01
9,CCGGAAUCAAAACCUCUAGTT against Acsf3,inactive: -1.18
10,GGCUACCAAGUGUACCAUUTT against Syt15,inactive: 1.16
11,GGCGACCUCUAGGUGUCUUTT against Bptf,inactive: -0.879
12,GGAAAACAGGCAGGACUUCTT against D930020B18Rik,inactive: -0.534
13,GGAUUCGUAAACUUCAGAUTT against Igf2bp3,active: 3.41
14,CCUUAAUCGCAUCAAAUUATT against Slc1a3,active: 2.35
15,GGGCUCAAGGUUAUUAAUGTT against Gjb1,inactive: 0.339
16,GCGCGAUUCAGAGGUUUCATT against Raver2,inactive: 0.238
17,GCCGACCAGUUCCUAGUGATT against Nol11,inactive: 0.969
18,GGAGACACUGAACAUCUUATT against Kctd13,inactive: -0.669
19,GGAACAUGAAAACACGAAUTT against Mier1,inactive: 0.22
20,GGAAAGCCAGAAAAUUCACTT against Gimap6,inactive: 1.09
21,GGCUUAGGUGUCCGAGAAATT against Wfdc2,inactive: -1.01
22,GCUUCAGUAUAACCUAGAATT against Catsper2,inactive: 0.554

row,Sequence,z-score
1,GGCCAGGACACUCAAAAACTT against Serpina3b,inactive: 0.13
2,CCAGCAUGCAUCCAUUCUUTT against Mageb3,inactive: 0.638
3,GGCUUUAUAUCAAGAUUUGTT against Lrrc2,inactive: 1.7
4,GGAGAGGAGUUGGAUAGAUTT against Mobp,inactive: -1.48
5,CCCUUACAUCACACAGGACTT against Plppr3,inactive: -0.645
6,CCAGAUUAUCCGUUUAAACTT against Ube2e2,inactive: 0.242
7,CCAGGUCUAAAAGUAACAATT against Unc13b,inactive: 0.709
8,GGAAGAAACCUACGUUGAATT against Mterf2,inactive: -0.666
9,GGAACCUAAUUGAAUGGCUTT against Cmbl,inactive: 0.985
10,GGGAUGAAAAAAUUGGAUATT against Chd1,inactive: -1.36
11,GGGAGUUCUGCUUUAUUGCTT against Bst2,inactive: 0.87
12,GGACCUGGUAUCUCUAUAUTT against Rasgrp4,inactive: -0.807
13,GGCACACCUAGACACAGAATT against Txnl4a,inactive: -0.228
14,GGCUUCAGCUAACCAAGCUTT against Adat1,inactive: -0.638
15,GGGACUUCAAAGCAGGUAGTT against Alx3,inactive: -1.82
16,CGUGAACCGCCAGAAUGCUTT against Cdh5,inactive: -0.403
17,GGUAUUCAGGAAGUCACCATT against Krt4,inactive: -0.637
18,CCUCCUGACUUGGAUAGAGTT against Agt,inactive: 0.521
19,GCACAUCAUUUAUCAGACATT against Ramp3,inactive: -0.312
20,GGUGUGCUUAUUCAUGAGUTT against Prr18,inactive: -0.0356
21,GGUUUUCACCCUGAAUGUGTT against Siglece,inactive: 0.134
22,CCCUAAUAGAACUAAUGAATT against Kpnb1,inactive: -0.904

row,Sequence,z-score
1,GGCUGUUUGUUGUGUUUAATT against Rbm45,inactive: 1.61
2,CCAGUUGAAUUAGAAUCCATT against Ctns,inactive: -1.08
3,CCUUCUCAUCGGUCAUUCUTT against Prss48,inactive: 0.348
4,GGACCAUAUGAACUUUAUUTT against Xpo7,inactive: -0.399
5,GGGAAGAUCUUCAAGAAGGTT against Pa2g4,inactive: -0.089
6,GGAGAAAUCAUCACAGUUATT against Snx9,inactive: 2
7,GGCAGGCCUCAGUUGAGAUTT against Pycrl,inactive: 0.297
8,GGAAAUUCCAUGUAUGACUTT against Tm7sf2,inactive: -0.736
9,CGAAAAUCGAGAAUUCUUCTT against Nlrp9b,inactive: 0.0767
10,GGAUGGACAUUUUGUCUUCTT against Mmp15,inactive: 0.335
11,GGCAAUCUGCACUUUAUACTT against Pank2,inactive: -0.987
12,GGAAAUACAGCUCUUGCUCTT against Ccny,inactive: -0.319
13,CCCACAUAAGCGAAUCUCUTT against Cdk4,inactive: 0.522
14,GCAGAUCCAAUCAAAUCUCTT against Ly86,inactive: 0.982
15,CGACAUUGUGAUUAUCCAGTT against Elane,inactive: -0.274
16,GGAACAUGGACACCACACUTT against Thap3,inactive: 0.879
17,CCACUAGGAGUUUACUCCGTT against Efcab5,inactive: -1.3
18,GCUGUUGUAACCAUAACAGTT against Ntsr1,inactive: 0.439
19,GGAGAUCAAGAACUACGUCTT against Mrpl12,inactive: 0.639
20,GGGACCACAGCACUGGUUUTT against Cox6a1,inactive: 0.186
